{"source": "PubChem BioAssay AID504834", "about": "(National Center for Advancing Translational Sciences (NCATS), 2011)", "note": "In all, about 320,000 compounds went through this assay and about 22,000 (6.9%) were called active. This list was built around the results that the source calls inconclusive (neither active nor inactive); the mix of calls is not that of the screen. Calls follow the shape of the dose curve; as a rule, active = well fitted inhibition curve with a large enough effect; inconclusive = small, poorly fitted or top-dose-only effect, or another doubt; inactive = no such curve, though single readings can be large or run the other way. Potencies of inconclusive entries are doubtful fits and often do not repeat."}
{"test": "Primary qHTS for delayed death inhibitors of the malarial parasite plastid, 96 hour incubation; also: potency is read from the fitted curve at half-maximal effect; as to activity change, negative = inhibition: % is scaled to controls: 0 for no effect and ±100 for the full control effect", "conditions": "P. falciparum luciferase reporter growth; series mostly up to 28.7 µM; activity change, negative = inhibition: at the top concentration", "method_in_brief": "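Readout is luminescence from an integrated firefly luciferase in P. falciparum. Red cells, 2% hematocrit and 0.05% parasitemia final, were cultured with compound through two parasite generations (96 hours) at 37 C, 5% CO2.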"}
{"compound": "CCOc1ccc(C2/C(=C(\\O)c3ccc4c(c3)OCCO4)C(=O)C(=O)N2CCCN2CCOCC2)cc1", "note": "(stereo not given)", "Potency": "inconclusive: 18.5 µM [inhibitor, single point]"}
{"compound": "Cc1[nH]c2ccccc2c1/C=C/c1cc[n+](C)cc1", "Potency": "active: 0.147 µM"}
{"compound": "Cc1cc(C(=O)NC2CCCc3c2cnn3-c2cccc(C)c2C)no1", "note": "(stereo not given)", "Potency": "inconclusive: 18.5 µM [inhibitor, single point]"}
{"compound": "O=C(CN1C(=O)NC(Cc2ccccc2)C1=O)Nc1ccc(F)c(F)c1F", "note": "(stereo not given)", "activity change, negative = inhibition": "inactive: 5.65%"}
{"compound": "Cn1cc(CN2CCN(c3ccc(Cl)cn3)CC2)c(-c2ccccc2F)n1", "Potency": "inconclusive: 18.5 µM [inhibitor, single point]"}
{"compound": "CC(=O)Nc1ccc(S(=O)(=O)NCC(=O)N2CCN(S(=O)(=O)c3cccs3)CC2)cc1", "Potency": "inconclusive: 13.1 µM [inhibitor, single point]"}
{"compound": "COCc1cc(=O)n2[nH]c(N)nc2n1", "Potency": "inconclusive: 4.15 µM [inhibitor, partial curve, poor fit]"}
{"compound": "CCCc1[nH]c2ccc(C(=O)OC)cc2c1CCC", "Potency": "inconclusive: 18.5 µM [inhibitor, single point]"}
{"compound": "Cc1cccc(NC(=O)CSc2n[nH]c(-c3cccnc3)n2)c1", "Potency": "inconclusive: 1.47 µM [inhibitor, full curve, poor fit]"}
{"compound": "Cc1cc(=O)nc2c3ccccc3n(C(C)C(=O)NCCC(C)C)n12", "note": "(stereo not given)", "Potency": "inconclusive: 4.15 µM [inhibitor, single point]"}
{"compound": "Cc1cc(C(F)(F)F)n2nc(-c3cnn(C)c3C(F)(F)F)c(Br)c2n1", "Potency": "inconclusive: 1.65 µM [inhibitor, partial curve, poor fit]"}
{"compound": "COCCCNCCCOc1ccc(Cl)cc1Br", "Potency": "inconclusive: 3.29 µM [inhibitor, full curve]"}
{"compound": "Cc1cc(C)c(C)c(OCCOCCNCc2ccccc2)c1", "activity change, negative = inhibition": "inactive: 35%"}
{"compound": "O=C(NC1CCN(Cc2ccccc2)CC1)c1ccccc1OCc1ccccc1Cl", "Potency": "inconclusive: 6.57 µM [inhibitor, partial curve, poor fit]"}
{"compound": "Cc1cc(C)c(NC(=S)N(C)C)c(C)c1", "activity change, negative = inhibition": "inactive: 66.4%"}
{"compound": "COc1cc(C(=O)Nc2ccc(S(=O)(=O)NC(C)(C)C)cc2)cc(OC)c1OC", "activity change, negative = inhibition": "inactive: -54.7%"}
{"compound": "COc1ccccc1C(=O)NCCC(=O)NC(C)CCc1ccccc1", "note": "(stereo not given)", "Potency": "inconclusive: 18.5 µM [inhibitor, single point]"}
{"compound": "O=C(NC1CCCCC1)NC1CC2CCC(C1)N2Cc1nnnn1Cc1ccc2c(c1)OCO2", "note": "(stereo not given)", "activity change, negative = inhibition": "inactive: 0%"}
{"compound": "CC1=C(C(=O)OCc2ccccc2)C(c2ccc([N+](=O)[O-])cc2)NC(=O)N1CCCCCC(=O)O", "note": "(stereo not given)", "Potency": "inconclusive: 10.4 µM [inhibitor, single point]"}
{"compound": "COc1ccc(N(C(=O)c2snc(C(N)=O)c2N)C(C(=O)NC2CCCCC2)c2ccc(F)cc2)c(OC)c1", "note": "(stereo not given)", "activity change, negative = inhibition": "inactive: 14.2%"}
{"compound": "CC(C)CNS(=O)(=O)c1cc(C(=O)OCC(=O)c2ccc3c(c2)OCCO3)c(Cl)cc1Cl", "activity change, negative = inhibition": "inactive: -1.1%"}
{"compound": "Oc1ccccc1N1CCN(c2ncnc3scc(-c4ccccc4)c23)CC1", "Potency": "active: 5.22 µM"}
{"compound": "CCOC(=O)c1cc2sc(C)cc2n1CC(=O)Nc1ccc2c(c1)OCCO2", "Potency": "active: 0.738 µM"}
{"compound": "O=C(CSc1ccc(Cl)cc1)NC(=O)NCc1ccco1", "activity change, negative = inhibition": "inactive: 50.1%"}
{"compound": "CC(C)CN(Cc1c(O)ccc2c3c(c(=O)oc12)CCC3)CC(C)C", "Potency": "inconclusive: 18.5 µM [inhibitor, single point]"}
{"compound": "O=C1Nc2ccccc2Sc2ccccc21", "activity change, negative = inhibition": "inactive: 4.28%"}
{"compound": "N=c1sccn1CC(=O)Nc1ccc(S(=O)(=O)N2CCOCC2)cc1", "Potency": "inconclusive: 0.0657 µM [inhibitor, full curve, poor fit]"}
{"compound": "Cc1cccc(NC(=O)C2CCCN(C(=O)NCc3ccccc3)C2)c1C", "note": "(stereo not given)", "Potency": "inconclusive: 10.4 µM [inhibitor, single point]"}
{"compound": "Cc1ccc(C(=O)Nc2nc3ccc(S(C)(=O)=O)cc3s2)s1", "activity change, negative = inhibition": "inactive: 23.5%"}
{"compound": "Cc1nc(-c2cccc(NC(=O)C3CCCCC3)c2)cs1", "Potency": "inconclusive: 11.7 µM [inhibitor, single point]"}
{"compound": "COc1ccc(C2CC(C(F)(F)F)n3nc(C(=O)O)c(Br)c3N2)cc1", "note": "(stereo not given)", "activity change, negative = inhibition": "inactive: -11.3%"}
{"compound": "CN1CCN(CCC(=O)OC2CC3CCC(C2)N3C)CC1", "note": "(stereo not given)", "Potency": "inconclusive: 13.1 µM [inhibitor, single point]"}
{"compound": "CN(C)S(=O)(=O)c1ccc2c(c1)c(=O)c(C(=O)N1CCN(c3ccccn3)CC1)cn2C", "Potency": "inconclusive: 9.28 µM [inhibitor, single point]"}
{"compound": "CSC1=N/C(=C\\c2ccc(Cl)cc2)C(=O)N1N(C)C", "Potency": "inconclusive: 13.1 µM [inhibitor, single point]"}
{"compound": "Cc1cc(C(=O)COC(=O)c2ccc(O)cc2)c(C)n1CCc1ccc(F)cc1", "Potency": "inconclusive: 18.5 µM [inhibitor, partial curve, poor fit]"}
{"compound": "CCOc1ccc(NC(=O)CSc2nnc(-c3ccccn3)n2C)cc1", "Potency": "inconclusive: 2.94 µM [inhibitor, single point]"}
{"compound": "COc1ccc(C(c2nnnn2CCc2ccccc2)N2CCN(C3CCCC3)CC2)cc1", "note": "(stereo not given)", "activity change, negative = inhibition": "inactive: -4.79% [at 5.75 µM]"}
{"compound": "CCOc1cc(N2CCOCC2)c(OCC)cc1NC(=O)c1nn(CC)c(=O)c2ccccc12", "Potency": "active: 2.62 µM"}
{"compound": "COC(=O)c1[nH]c2ccccc2c1NS(=O)(=O)c1ccc(OC)cc1OC", "Potency": "inconclusive: 0.0657 µM [inhibitor, full curve, poor fit]"}
{"compound": "O=C(Nc1ccc(F)cc1F)c1ccc2nc(N3CCOCC3)sc2c1", "Potency": "active: 11.7 µM"}
{"compound": "CC(C)(C)OC(=O)N1CCC(CC2CC(c3ccncc3)=NO2)(C(=O)O)CC1", "note": "(stereo not given)", "Potency": "inconclusive: 18.5 µM [inhibitor, single point]"}
{"compound": "CCOC(=O)C(/C=N/c1cc(C)nn1-c1ccccc1)=C(\\C)O", "Potency": "inconclusive: 0.657 µM [inhibitor, full curve, poor fit]"}
{"compound": "COc1ccc(/C=N/NC(=O)COc2cccc3cccnc23)cc1OC", "Potency": "inconclusive: 10.4 µM [inhibitor, single point]"}
{"compound": "Cc1ccc2nc(Cl)c(C3CC(c4cccs4)=NN3S(C)(=O)=O)cc2c1", "note": "(stereo not given)", "Potency": "inconclusive: 7.38 µM [inhibitor, partial curve]"}
{"compound": "COc1ccc(NC(=O)COC(=O)CCc2ccccc2)c(OC)c1", "activity change, negative = inhibition": "inactive: 26.9%"}
{"compound": "CCN(CC(=O)Nc1c(F)cccc1F)C(=O)c1cc(S(=O)(=O)N(CC)CC)ccc1N1CCCCC1", "Potency": "inconclusive: 5.86 µM [inhibitor, partial curve, poor fit]"}
{"compound": "CCOC(=O)c1c(NC(C)=O)sc2c(O)cccc12", "activity change, negative = inhibition": "inactive: 9.81%"}
{"compound": "Cc1ccc(Cl)cc1NC(=O)COC(=O)CC(C)(C)C", "Potency": "inconclusive: 13.1 µM [inhibitor, single point]"}
{"compound": "N#CCCn1c(=S)[nH]c2ccccc21", "Potency": "inconclusive: 0.0026 µM [inhibitor, full curve, poor fit]"}
{"compound": "O=C(NC1CCCCC1)N1CCN(C(=O)c2ccco2)CC1", "Potency": "inconclusive: 0.0928 µM [inhibitor, full curve]"}
{"compound": "CC(=O)C1C(c2ccccc2OC(F)F)NC(=O)NC1(O)C(F)(F)F", "note": "(stereo not given)", "activity change, negative = inhibition": "inactive: 25.4%"}
{"compound": "Cc1nn(C)c(C(=O)Sc2ccccc2)c1[N+](=O)[O-]", "activity change, negative = inhibition": "inactive: 0.3%"}
{"compound": "c1ccc(Cc2nnc3sc(-c4ccco4)nn23)cc1", "Potency": "inconclusive: 18.5 µM [inhibitor, single point]"}
{"compound": "Cc1cc(-c2nnc3sc(C4CCCCC4)nn23)n[nH]1", "Potency": "inconclusive: 5.86 µM [inhibitor, single point]"}
{"compound": "CC(C(=O)Nc1ccccc1)N1CCN(C(=O)c2ccco2)CC1", "note": "(stereo not given)", "activity change, negative = inhibition": "inactive: -21.2%"}
{"compound": "COc1ccc(Cn2c(=O)[nH]c3cc(C(=O)NC4CCCC4)ccc3c2=O)cc1", "Potency": "inconclusive: 6.57 µM [inhibitor, partial curve, poor fit]"}
{"compound": "CCOc1ccc(/C=N/NC(=O)c2cc3ccccc3cc2OC)cc1", "Potency": "inconclusive: 18.5 µM [inhibitor, single point]"}
{"compound": "CN(C(=O)C1CCCN(S(=O)(=O)c2cccc([N+](=O)[O-])c2)C1)C1CCS(=O)(=O)C1", "note": "(stereo not given)", "Potency": "inconclusive: 4.15 µM [inhibitor, single point]"}
{"compound": "CC1CCCC(C)N1C(=O)COC(=O)c1cccc(S(=O)(=O)N(C)c2ccccc2)c1", "note": "(stereo not given)", "Potency": "inconclusive: 18.5 µM [inhibitor, single point]"}
{"compound": "CCOc1ccc(NC(=S)N2CCc3cc(OC)c(OC)cc3C2COc2ccc3c(C)cc(=O)oc3c2)cc1", "note": "(stereo not given)", "Potency": "inconclusive: 2.94 µM [inhibitor, single point]"}
{"compound": "CC1CC1C(=O)Nc1nc(-c2ccc(Cl)s2)cs1", "note": "(stereo not given)", "activity change, negative = inhibition": "inactive: -1%"}
{"compound": "CCc1ccc(C(=O)CSc2ncn[nH]2)cc1", "Potency": "inconclusive: 18.5 µM [inhibitor, single point]"}
{"compound": "COc1cccc(CNC(=O)COC(=O)C2CC3CCCC(C2)C3=O)c1", "note": "(stereo not given)", "activity change, negative = inhibition": "inactive: 30.8%"}
{"compound": "O=[N+]([O-])c1cc(Cl)ccc1NCCNc1ncc(C(F)(F)F)cc1Cl", "activity change, negative = inhibition": "inactive: -86.8%"}
{"compound": "O=C(Nc1cccc(S(=O)(=O)N2CCCC2)c1)c1cc(S(=O)(=O)N2CCOCC2)ccc1F", "Potency": "inconclusive: 16.5 µM [inhibitor, single point]"}
{"compound": "COc1cc(/C=C/C(=O)Nc2ccc(C(C)=O)cc2)cc(OC)c1OC", "activity change, negative = inhibition": "inactive: 4.88%"}
{"compound": "COc1ccc(C(=O)O/N=C(\\N)Cc2ccc(Cl)cc2)cc1OC", "Potency": "active: 10.4 µM"}
{"compound": "Cc1ccc(C)c(SCC(=O)Nc2cc(C)nn2-c2ccc(F)cc2)c1", "Potency": "inconclusive: 18.5 µM [inhibitor, single point]"}
{"compound": "CC(C)c1nnc(NC(=O)C2CCCN2S(=O)(=O)c2ccc(Cl)cc2)s1", "note": "(stereo not given)", "Potency": "inconclusive: 16.5 µM [inhibitor, partial curve, poor fit]"}
{"compound": "COc1cccc(NC(=O)C2CCN(S(=O)(=O)c3ccc4c(c3)NC(=O)CO4)CC2)c1", "Potency": "inconclusive: 4.15 µM [inhibitor, full curve, poor fit]"}
